PubChem BioAssay AID1259254 | NCATS, 2017
Aim: 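Finding genes that stop cells copying their DNA twice in one cycle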 (primary screen). Cells: human HCT116 colorectal cancer cells. Reagents: single siRNA against human genes. Timing: 3 days. Measured: 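Nuclei stained with Hoechst and imaged; cell-cycle phase assigned by DNA content; G2 share scaled per plate, non-targeting siRNA 0%, GMNN siRNA 100%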. Scale: G2 robust z-score: higher = more G2 cells, more excess DNA replication. Call rule: 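Active siRNAs have a G2 robust z of 5 or more median absolute deviations over the median, which in these data means about 38% or higher of GMNN control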.
Here is one part, drawn at random, of about 59,000 deposited reagents. Over the whole deposit, about 1,550 (2.6%) were called active. 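G2 share is only a proxy for re-replication; each gene was hit by three separate siRNAs, and active genes were retested.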 Unmarked entries are inactive. The numbers tell different reagents against one gene apart. Further read-outs or replicates are left out here. No sequences are given here. The record does not give: the amount of reagent.

{"gene": "MAP4K3-DT (GeneID 728730)", "siRNA no.": 1, "G2 robust z-score": -0.499}
{"gene": "MAP4K3-DT (GeneID 728730)", "siRNA no.": 2, "G2 robust z-score": 1.14}
{"gene": "MAP4K3-DT (GeneID 728730)", "siRNA no.": 3, "G2 robust z-score": 2.54}
{"gene": "TMEM176B (GeneID 28959)", "siRNA no.": 1, "G2 robust z-score": 1.02}
{"gene": "TMEM176B (GeneID 28959)", "siRNA no.": 2, "G2 robust z-score": 0.663}
{"gene": "TMEM176B (GeneID 28959)", "siRNA no.": 3, "G2 robust z-score": 0.632}
{"gene": "SORCS1 (GeneID 114815)", "siRNA no.": 1, "G2 robust z-score": -0.323}
{"gene": "SORCS1 (GeneID 114815)", "siRNA no.": 2, "G2 robust z-score": 0.0818}
{"gene": "SORCS1 (GeneID 114815)", "siRNA no.": 3, "G2 robust z-score": 2.53}
{"gene": "CNOT4 (GeneID 4850)", "siRNA no.": 1, "G2 robust z-score": -0.633}
{"gene": "CNOT4 (GeneID 4850)", "siRNA no.": 2, "G2 robust z-score": -0.213}
{"gene": "CNOT4 (GeneID 4850)", "siRNA no.": 3, "G2 robust z-score": -0.854}
{"gene": "OR52H1 (GeneID 390067)", "siRNA no.": 1, "G2 robust z-score": 0.951}
{"gene": "OR52H1 (GeneID 390067)", "siRNA no.": 2, "G2 robust z-score": -0.727}
{"gene": "OR52H1 (GeneID 390067)", "siRNA no.": 3, "G2 robust z-score": 1.93}
{"gene": "POLR2J (GeneID 5439)", "siRNA no.": 1, "G2 robust z-score": -1.09}
{"gene": "POLR2J (GeneID 5439)", "siRNA no.": 2, "G2 robust z-score": -0.0551}
{"gene": "POLR2J (GeneID 5439)", "siRNA no.": 3, "G2 robust z-score": "12.1 (active)"}
{"gene": "PMS2P12 (GeneID 392713)", "siRNA no.": 1, "G2 robust z-score": -0.654}
{"gene": "PMS2P12 (GeneID 392713)", "siRNA no.": 2, "G2 robust z-score": 0.996}
{"gene": "PMS2P12 (GeneID 392713)", "siRNA no.": 3, "G2 robust z-score": -0.951}
{"gene": "TIMM29 (GeneID 90580)", "siRNA no.": 1, "G2 robust z-score": -0.662}
{"gene": "TIMM29 (GeneID 90580)", "siRNA no.": 2, "G2 robust z-score": 1.71}
{"gene": "TIMM29 (GeneID 90580)", "siRNA no.": 3, "G2 robust z-score": 0.271}
